According to article PMC2948036:
Results are given in words; binding and its absence hold for the method and conditions named. Binding seen in cells or lysates may run through a third protein. Some binding calls cover weakened binding; strength is not graded here.

Biological target: T1, rat CD1d heavy chain, endogenous in rat thymocytes (rat (endogenous in thymocytes)) (UniProt Q63493)
T1 sequence (chain, cell surface proteins biotinylated with Sulfo-NHS-LC-Biotin before lysis): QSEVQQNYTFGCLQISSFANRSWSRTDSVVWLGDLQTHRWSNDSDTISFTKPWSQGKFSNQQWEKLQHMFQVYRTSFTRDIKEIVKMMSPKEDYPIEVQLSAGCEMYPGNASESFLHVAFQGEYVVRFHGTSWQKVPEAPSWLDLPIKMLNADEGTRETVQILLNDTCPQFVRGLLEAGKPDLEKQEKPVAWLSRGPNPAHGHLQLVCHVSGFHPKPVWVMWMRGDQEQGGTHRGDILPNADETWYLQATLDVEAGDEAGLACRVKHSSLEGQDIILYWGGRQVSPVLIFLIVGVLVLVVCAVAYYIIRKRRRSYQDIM
Assay: co-IP; surface-biotinylated transductants or thymocytes lysed in 50 mM Tris pH 7.4, 150 mM NaCl, 0.25% Na-deoxycholate, 1 mM EDTA, 1% NP40; lysates incubated overnight with mAb WTH-1 or WTH-2 covalently linked to Protein A Sepharose pre-coated with rabbit anti-mouse IgG; reducing 15% SDS-PAGE, blot developed with streptavidin-HRP

binding: binds
B1: β2-microglobulin of rat thymocytes (protein, UniProt P07151 21-119)
chain: IQKTPQIQVYSRHPPENGKPNFLNCYVSQFHPPQIEIELLKNGKKIPNIEMSDLSFSKDWSFYILAHTEFTPTETDVYACRVKHVTLKEPKTVTWDRDM
modifications: cell surface proteins biotinylated with Sulfo-NHS-LC-Biotin before lysis
